Results are given in words; binding and its absence hold for the method and conditions named. In cells and extracts the contact can be indirect. Some results given as binding are weak or reduced against the parent protein; the word gives no strength. Sequences can lack the tags named with a protein.
Experiments:
[1] = target: T1, GST fusion protein containing residues 1961-2046 of ATM (GST-ATM^1961-2046) (Homo sapiens (Human)) (UniProt Q13315); assay: GST co-purification on glutathione-agarose after co-expression in E. coli
T1 sequence: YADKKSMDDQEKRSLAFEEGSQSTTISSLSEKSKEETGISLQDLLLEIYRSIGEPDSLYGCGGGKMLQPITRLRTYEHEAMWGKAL

[2] = target: T2, GST-ATM^1961-2046 fusion protein containing Ser^1981→Ala (Homo sapiens (Human)) (UniProt Q13315); assay: as above
T2 sequence: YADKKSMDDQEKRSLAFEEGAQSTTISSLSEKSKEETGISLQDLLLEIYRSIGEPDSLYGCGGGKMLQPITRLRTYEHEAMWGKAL

binding [1]: binds
binding [2]: binds
B1: 6×-Histidine (6×-His) fusion protein containing the C-terminal kinase domain of ATM, residues 2712-3056 (enzyme, not shown: small tags and cut ends)
chain: RRQLVKGRDDLRQDAVMQQVFQMCNTLLQRNTETRKRKLTICTYKVVPLSQRSGVLEWCTGTVPIGEFLVNNEDGAHKRYRPNDFSAFQCQKKMMEVQKKSFEEKYEVFMDVCQNFQPVFRYFCMEKFLDPAIWFEKRLAYTRSVATSSIVGYILGLGDRHVQNILINEQSAELVHIDLGVAFEQGKILPTPETVPFRLTRDIVDGMGITGVEGVFRRCCEKTMEVMRNSQETLLTIVEVLLYDPLFDWTMNPLKALYLQQRPEDETELHPTLNADDQECKRNLSDIDQSFDKVAERVLMRLQEKLKGVEEGTVLSVGGQVNLLIQQAIDPKNLSRLFPGWKAWV

From patent US20030077661A1 (ST JUDE CHILDREN S RESEARCH HOSPITAL, published 2003)
